The structures appear in SMILES notation. The list shows only some results of the screen, not a fair sample: it gathers tests that were run many times, whatever their T/C, doses with no T/C, and many T/C values between a quarter and a half above the control. Further doses and runs are listed elsewhere. T/C is the treated group as % of the vehicle group. Some doses have a count of surviving animals in place of a T/C: the source holds a T/C of zero for them, seemingly a mark for toxic or unscored doses. Some survivor counts are full or nearly so, which does not show that the dose was tolerated: survival well below the control is almost never listed, so the zero probably covers shortened survival too. Counts of survivors are from the toxicity check (mostly the fifth day) where no day follows; animals may have died later. Schedule codes are those of the source, taken here to give the interval after Q, in days (D) or hours (H), and the number of doses after X. Some entries were tested several times; the results are listed from low to high. Some schedule codes hold Z or #, which are not explained here. For survival time, the PubChem record calls one and a half times the control and up active, and a quarter to a half above the control has no call in these data; cut-offs in other NCI protocols can differ.

This assay has as its system L1210 leukemia ip in BDF1 mice, survival T/C. Kind of assay: NCI In Vivo Anticancer Drug Screen. Data for tumor model L1210 Leukemia (intraperitoneal) in B6D2F1 (BDF1) mice. As to conditions: T/C endpoint: mean survival time, higher T/C = longer survival.
Where [1] appears, read: dose: 100.0 mg/kg/injection, schedule: Q01DX001 (ip), vehicle: carboxymethylcellulose (CMC).
The mark [2] stands for this setting: dose: 200.0 mg/kg/injection, schedule: Q01DX001 (ip), vehicle: carboxymethylcellulose (CMC).
Setting [3] is: dose: 400.0 mg/kg/injection, schedule: Q01DX001 (ip), vehicle: carboxymethylcellulose (CMC).
[4] abbreviates: dose: 400.0 mg/kg/injection, schedule: Q04DX003 (ip), vehicle: saline.
Setting [5] is: dose: 400.0 mg/kg/injection, schedule: Q01DX009 (ip), vehicle: saline with Tween-80.
[6] abbreviates: dose: 400.0 mg/kg/injection, schedule: Q04DX003 (ip), vehicle: saline with Tween-80.
Where [7] appears, read: dose: 100.0 mg/kg/injection, schedule: Q01DX001 (ip), vehicle: saline.
Setting [8] is: dose: 400.0 mg/kg/injection, schedule: Q01DX001 (ip), vehicle: saline.
[9] abbreviates: dose: 200.0 mg/kg/injection, schedule: Q01DX001 (ip), vehicle: saline.
Where [10] appears, read: dose: 200.0 mg/kg/injection, schedule: Q01DX009 (ip), vehicle: saline.
Where [11] appears, read: dose: 200.0 mg/kg/injection, schedule: Q04DX003 (ip), vehicle: saline with Tween-80.

Take `O=C(Nc1cccc(C2=NCCN2)c1)Nc1cc(C(=O)Nc2ccc(C3=NCCN3)cc2)ccc1C(=O)Nc1ccc(C2=NCCN2)cc1`: the survivor count (dose: 15.0 mg/kg/injection, schedule: Q01DX Z (ip), vehicle: saline) is given as 0 of 6; the survivor count (dose: 30.0 mg/kg/injection, schedule: Q01DX Z (ip), vehicle: saline) is listed as 0 of 6; the survivor count (dose: 60.0 mg/kg/injection, schedule: Q01DX Z (ip), vehicle: saline) was 0 of 6; the survivor count (dose: 120.0 mg/kg/injection, schedule: Q01DX Z (ip), vehicle: saline) is reported as 0 of 6; the survivor count (dose: 500.0 mg/kg/injection, schedule: Q01DX010 (oral), vehicle: saline) was 2 of 6.

As for `O=S(=O)(CCS(=O)(=O)c1ccccc1)c1ccccc1`, the survivor count (dose: 300.0 mg/kg/injection, schedule: Q01DX009 (ip), vehicle: saline) is on record as 6 of 6.

`CN(Cc1cnc2nc(N)nc(N)c2n1)c1ccc(C(=O)NC(CCC(=O)NCC(=O)O)C(=O)O)cc1` (stereo not drawn): the T/C runs as follows: (dose: 1.0 mg/kg/injection, schedule: Q01DX009 (ip), vehicle: sodium bicarbonate) 139 % of control; (dose: 2.0 mg/kg/injection, schedule: Q01DX009 (ip), vehicle: sodium bicarbonate) 145 % of control. The survivor count runs as follows: (dose: 25.0 mg/kg/injection, schedule: Q01DX009 (ip), vehicle: sodium bicarbonate) 5 of 6; (dose: 50.0 mg/kg/injection, schedule: Q01DX009 (ip), vehicle: sodium bicarbonate) 3 of 6.

As for `CCN(CC)CCCC(C)Nc1ccnc2cc(C(F)(F)F)ccc12` (stereo not drawn), the survivor count was 0 of 4 (dose: 80.0 mg/kg/injection, schedule: Q01DX001 (ip), vehicle: carboxymethylcellulose (CMC)); 0 of 4 under setting [1]; 0 of 4 under setting [2]; 0 of 4 under setting [3].

As for `NC1CSSC1`, the survivor count reads like this: (dose: 25.0 mg/kg/injection, schedule: Q01DX009 (ip), vehicle: water) 0 of 6; (dose: 50.0 mg/kg/injection, schedule: Q01DX009 (ip), vehicle: water) 0 of 6; (dose: 100.0 mg/kg/injection, schedule: Q01DX009 (ip), vehicle: water) 0 of 6; (dose: 200.0 mg/kg/injection, schedule: Q01DX009 (ip), vehicle: water) 0 of 6; (dose: 400.0 mg/kg/injection, schedule: Q01DX009 (ip), vehicle: water) 0 of 6.

Turning to `C[S+](C)CC(=O)c1ccccc1`, the survivor count under setting [4] is 1 of 6.

Take `O=C(O)CCCCCCCCCCNC(=O)Nc1cccc(C(F)(F)F)c1`: the T/C (dose: 400.0 mg/kg/injection, schedule: Q04DX003 (ip), vehicle: gum acacia) was 149 % of control.

With `CSc1ccc(OC(=O)Nc2cc(Cl)ccc2C)cc1`, the survivor count was 0 of 3 and 3 of 6 under setting [5]; 0 of 6 under setting [6].

On to `Oc1cc2c(O)cccc2c2ccccc12`, for which the survivor count under setting [6] was 0 of 6.

For `N#C/C(=N\N=Nc1ccccc1)c1ccccc1`, the survivor count is, setting by setting: (dose: 3.0 mg/kg/injection, schedule: Q01DX009 (ip), vehicle: DMSO) 5 of 6; (dose: 25.0 mg/kg/injection, schedule: Q01DX009 (ip), vehicle: DMSO) 5 of 6; (dose: 50.0 mg/kg/injection, schedule: Q01DX009 (ip), vehicle: DMSO) 1 of 6.

Turning to `COc1ccc2c(c1)C(C)(C)N(C)CC2`, the survivor count reads like this: (dose: 200.0 mg/kg/injection, schedule: Q04DX003 (ip), vehicle: acetone) 0 of 6; (dose: 400.0 mg/kg/injection, schedule: Q04DX003 (ip), vehicle: acetone) 0 of 6.

On to `Cc1ccc(NC(=O)c2ccccc2-c2ccccc2C(=O)Nc2ccc(C)cc2)cc1`, for which the survivor count (dose: 200.0 mg/kg/injection, schedule: Q01DX001 (ip), vehicle: other) was 4 of 4 and the survivor count (dose: 400.0 mg/kg/injection, schedule: Q01DX001 (ip), vehicle: other) was 4 of 4.

`NC(=O)C(=O)NCCCCN1CC1`: the survivor count by setting is: (dose: 200.0 mg/kg/injection, schedule: Q04DX003 (ip), vehicle: Klucel (hydroxypropylcellulose) (HPC)) 3 of 6; (dose: 400.0 mg/kg/injection, schedule: Q04DX003 (ip), vehicle: Klucel (hydroxypropylcellulose) (HPC)) 0 of 6.

Consider `CC(=O)OCC1OC(n2cnc3c(N)ncnc32)C(OC(C)=O)C1OC(C)=O` (stereo not drawn), for which the survivor count by setting is: under setting [7], 4 of 4; under setting [8], 1 of 6.

Take `Nc1c(S(=O)(=O)O)cc(Nc2cccc(CO)c2)c2c1C(=O)c1ccccc1C2=O`: the survivor count under setting [8] was 1 of 6.

`COc1ccc([P+](Cc2ccccc2)(c2ccccc2)c2ccc3ccccc3c2)cc1` (stereo not drawn): the survivor count (dose: 300.0 mg/kg/injection, schedule: Q01DX001 (ip), vehicle: carboxymethylcellulose (CMC)) was 0 of 6.

With `CCCCCCCCCCCCCCCCCC[N+](C)(C)C`, the survivor count by setting is: (dose: 8.0 mg/kg/injection, schedule: Q01DX015 (ip), vehicle: saline) 3 of 6; (dose: 12.5 mg/kg/injection, schedule: Q01DX009 (ip), vehicle: saline) 2 of 6; (dose: 25.0 mg/kg/injection, schedule: Q04DX003 (ip), vehicle: saline) 4 of 6; (dose: 50.0 mg/kg/injection, schedule: Q04DX003 (ip), vehicle: saline) 0 of 6.

Regarding `COCCNP(=O)(OC)OC`, the survivor count (dose: 400.0 mg/kg/injection, schedule: Q01DX001 (ip), vehicle: acetone) is recorded as 6 of 6.

For the compound `N#CCC[P+](CCC#N)(CCC#N)CCCCCC[P+](CCC#N)(CCC#N)CCC#N`, under setting [6], the survivor count was 2 of 6.

As for `CCCCCCCCCCCCC(CC(=O)O)C(=O)N(CCO)CCO` (stereo not drawn), the survivor count is recorded as 0 of 3 under setting [7] and 0 of 3 under setting [8].

In the case of `Fc1cc(N(CCCl)CCCl)ccc1CNCCCNCc1ccc(N(CCCl)CCCl)cc1F`, the survivor count by setting is: under setting [1], 0 of 4; under setting [2], 0 of 4; under setting [3], 0 of 4.

Take `O=C1Nc2ccccc2Cc2ccccc21`: under setting [5], the survivor count is 6 of 6.

For the compound `Oc1ccccc1/C=N/c1nc2ccc(Cl)cc2s1.Oc1ccccc1/C=N/c1nc2ccc(Cl)cc2s1.[Zn]`, the survivor count is given as 2 of 3 under setting [9] and 0 of 3 under setting [8].

On to `O=c1[nH]nnc2c1cnn2-c1ccccc1`, for which, under setting [3], the survivor count was 1 of 4.

`O=C(/C=C/c1cccc([N+](=O)[O-])c1)NCCBr`: the survivor count (dose: 400.0 mg/kg/injection, schedule: Q01DX009 (ip), vehicle: Klucel (hydroxypropylcellulose) (HPC)) is reported as 3 of 6.

As for `CN(C)CCCCCCN(C)C` (tested in a mixture with another compound), the survivor count was 1 of 6 (dose: 75.0 mg/kg/injection, schedule: Q01DX001 (ip), vehicle: saline); 0 of 6 (dose: 150.0 mg/kg/injection, schedule: Q01DX001 (ip), vehicle: saline); 0 of 6 (dose: 300.0 mg/kg/injection, schedule: Q01DX001 (ip), vehicle: saline).

Consider `CCSC(=N)N=Nc1ccc(O)cc1`, for which the survivor count under setting [8] is reported as 0 of 4.

For the compound `OCCOCCN1CCN(C(c2ccccc2)c2ccc(Cl)cc2)CC1` (stereo not drawn), the survivor count is, setting by setting: under setting [10], 0 of 6; under setting [4], 0 of 4.

Regarding `CCc1cccc[n+]1Cc1ccccc1`, the survivor count is on record as 0 of 3 (dose: 100.0 mg/kg/injection, schedule: Q01DX009 (ip), vehicle: saline) and 0 of 3 under setting [10].

As to `CCCC(=O)Nc1cccc(OC(=O)NC)c1`, under setting [11], the survivor count was 6 of 6.

For the compound `C(=NCCN1CCOCC1)=NC1CCCCC1`, the survivor count (dose: 100.0 mg/kg/injection, schedule: Q04DX003 (ip), vehicle: saline with Tween-80) was 1 of 6; the survivor count under setting [11] is listed as 0 of 6; the survivor count under setting [6] is recorded as 0 of 6.

As to `CC[N+](CC)(CC)CCNC(c1ccccc1)C(Cl)(Cl)Cl` (stereo not drawn), the survivor count is 0 of 4 under setting [7], 0 of 4 under setting [9] and 0 of 4 under setting [8].
